# In publication PMC7819943, “Rice protein-binding microarrays: a tool to detect cis-acting elements near promoter regions in rice”:
# Sequences of proteins named here, by UniProt entry; tags and fusion partners are left off.
# UniProt Q0JBA9, entry or part of it: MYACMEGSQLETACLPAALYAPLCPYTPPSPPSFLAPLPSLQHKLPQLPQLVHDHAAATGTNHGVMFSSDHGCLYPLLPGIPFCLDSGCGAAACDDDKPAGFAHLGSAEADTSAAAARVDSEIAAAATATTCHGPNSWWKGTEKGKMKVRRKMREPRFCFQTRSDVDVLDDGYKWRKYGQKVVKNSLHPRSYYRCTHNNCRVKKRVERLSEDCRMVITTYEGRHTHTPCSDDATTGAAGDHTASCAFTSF
# The list shows a part of the results.
# Target: OsWRKY34 (Oryza sativa, UniProt Q0JBA9 1-250)
# Experiment: protein-binding microarray (RPBM); PBS, 2% BSA, 51.3 ng/ul salmon testes DNA, 50 uM zinc acetate, 200 nM TF, 25 C, 1 h; high values mean tight binding
# Conditions: protein: recombinant; tags: N-terminal polyhistidine and DsRed monomer fusion (pET32a); label: CyDye5-dUTP incorporated in the synthesized complementary strand; 3' TTTTT single-stranded linker to array surface; dsDNA, one strand shown
# Method in brief: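 In PBS with 2% BSA, salmon testes DNA and 50 µM zinc acetate, 200 nM protein was incubated on a custom Agilent array at 25 °C for 1 h and then washed off. The array had been made double-stranded by primer extension with Cy5-dUTP and blocked with 2% BSA. The proteins were transcription factors fused N-terminally to polyhistidine and DsRed, expressed in E. coli BL21-CodonPlus and purified on Ni–NTA. The binding signal is per-feature fluorescence intensity (arbitrary units) from an Axon 4000B scanner.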
row,Sequence,binding signal
1,CCGTGTTTGAGGTTCGTCATCCGTATTTGAAGTCGGTTTTCGGAGTCACCTAGTGCAG,10500 fluorescence intensity (a.u.)
2,TTATGCATGGCTTTGGCTTGGTTTGGTTTGGTTTGAAGAGCGGAGTCACCTAGTGCAG,11100 fluorescence intensity (a.u.)
3,TATCAGTGGAGAGCTCGATATTCGGAGGGGTTGGCAGCGACGGAGTCACCTAGTGCAG,8780 fluorescence intensity (a.u.)
4,GACCTATTATACATATCACCTCTTAATTTAATTATCTATGCGGAGTCACCTAGTGCAG,10100 fluorescence intensity (a.u.)
5,GGGTATGTTTGGGGAGCTTCTAACTTCTGCAGCTTCTCCCCGGAGTCACCTAGTGCAG,10500 fluorescence intensity (a.u.)
6,CACTGTGAATGCACTTGGTCAAACTGATTCCACTCGGTCCCGGAGTCACCTAGTGCAG,8880 fluorescence intensity (a.u.)
7,GAGCATCACAAGTCGCGACCTCACAGGGAGGGGCGGCGGCCGGAGTCACCTAGTGCAG,9060 fluorescence intensity (a.u.)
8,ATAGTAATCCTGGAGTCCTGGACGCCCCAAATAATTAACTCGGAGTCACCTAGTGCAG,9790 fluorescence intensity (a.u.)
9,TTGTCATTCTGCATCTCCAATCTATTCTTATGCACTGAGTCGGAGTCACCTAGTGCAG,8880 fluorescence intensity (a.u.)
10,GAGTACCTCTCGTTGTCTCCTCCGCTCCTTGCCTCCTTGCCGGAGTCACCTAGTGCAG,8350 fluorescence intensity (a.u.)
11,TTTTTCGTTCATGTGCTATCTTGTTCTTCACAAGTGCTTGCGGAGTCACCTAGTGCAG,8620 fluorescence intensity (a.u.)
12,CCGGGTCAACTTGCCACATCAGTGAATCCAGACATCTACACGGAGTCACCTAGTGCAG,8180 fluorescence intensity (a.u.)
13,GCATTGGCCATTTTTCCTCTTTTGCCCGATTTTTGATTTTCGGAGTCACCTAGTGCAG,12900 fluorescence intensity (a.u.)
14,TCCAGGTATATCAAATTTCATCCTTGCACAATCATTATTCCGGAGTCACCTAGTGCAG,8250 fluorescence intensity (a.u.)
15,ACCCGTCTCTCTTTCTTTCTTTCTCTCTCTCCTGTGTTTTCGGAGTCACCTAGTGCAG,8600 fluorescence intensity (a.u.)
16,CGAACTCCTCTTTTTTCTTTTTCTAATTTCGAAATTTATTCGGAGTCACCTAGTGCAG,10700 fluorescence intensity (a.u.)
17,AATAGTGGAGGTAGGTGGGAAAAGTGAATGTTGGAGGTTTCGGAGTCACCTAGTGCAG,13400 fluorescence intensity (a.u.)
18,TGGTTAAATGTCAATTTTCTCGTTGGGAGTTGGGAGGGATCGGAGTCACCTAGTGCAG,9280 fluorescence intensity (a.u.)
19,CTCCACATCTAACTAATTCTACACCAGCTTATATATTTATCGGAGTCACCTAGTGCAG,8710 fluorescence intensity (a.u.)
20,TTGCTTTCCTTGGCCTCACGCTTGTTCCATGTTAGTTCGACGGAGTCACCTAGTGCAG,16100 fluorescence intensity (a.u.)
21,TGTTTTTCCTATTTTGCTAGGAGTTGGGTATCTGGGACATCGGAGTCACCTAGTGCAG,8550 fluorescence intensity (a.u.)
22,ACCGAGCAAATACCTCGCATTTCATTTTTTTTTTTGCCTTCGGAGTCACCTAGTGCAG,9170 fluorescence intensity (a.u.)
23,TGAGAAAGAGAGAGAGAGGGAGATGGCTGGGGAGACGGGGCGGAGTCACCTAGTGCAG,9660 fluorescence intensity (a.u.)
24,GACCAACACCGGCCCCTGTCTTTTCTTTTGTGGCATCGCCCGGAGTCACCTAGTGCAG,9590 fluorescence intensity (a.u.)
25,GGGGTTCACGTGGGTTTCACTCATTATGTTAGCCAGAACCCGGAGTCACCTAGTGCAG,8450 fluorescence intensity (a.u.)
26,TTTTGGATTCCCTTTTCATCCATGGATGCATGTGTTCCTTCGGAGTCACCTAGTGCAG,8250 fluorescence intensity (a.u.)
27,CCACTTGCCCTTTGTCTTGTTCCTCCGCGCAGCTAGCTAGCGGAGTCACCTAGTGCAG,10300 fluorescence intensity (a.u.)

row,Sequence,binding signal
1,TCTCTTTTCTCATTTTTTCGCTTGCCACATCATTTTCTATCGGAGTCACCTAGTGCAG,9600 fluorescence intensity (a.u.)
2,GAATGACTGCGTTGCCAGCTTTTTTTCTTTCCTTCTTTTCCGGAGTCACCTAGTGCAG,13500 fluorescence intensity (a.u.)
3,ACCCTGCAGCTGTGTTTCCTTGTGTCCTCCTGTGCGTTGTCGGAGTCACCTAGTGCAG,15300 fluorescence intensity (a.u.)
4,GCTAGCTACCCACTTGAGGCCACTTCTGTCTTCTGCTACCCGGAGTCACCTAGTGCAG,9800 fluorescence intensity (a.u.)
5,GACTATAATTCGACAAGCTGGTGTGCTTATTCTTGTCCGTCGGAGTCACCTAGTGCAG,9080 fluorescence intensity (a.u.)
6,ACCTTTATTTTTTAATATATAAACGCTATTGACTTTTTTTCGGAGTCACCTAGTGCAG,10000 fluorescence intensity (a.u.)
7,AGGAGGTGTAGTAGGGTAGTGTAGGAGGTGTAGTGGAGTACGGAGTCACCTAGTGCAG,8450 fluorescence intensity (a.u.)
8,CACCACCACCGCCGCCGCCCTTCCGCTCTCGCCTCTCGCTCGGAGTCACCTAGTGCAG,8210 fluorescence intensity (a.u.)
9,ACGAATCCTCTCATATGTGTGCGCGTAGTGACTTTTTTCCCGGAGTCACCTAGTGCAG,8420 fluorescence intensity (a.u.)
10,TTTATCTCACCATGCATAATTGCAAGTATATTCCGTTCATCGGAGTCACCTAGTGCAG,9440 fluorescence intensity (a.u.)
11,TGGCAATCTCACAAAGCTGAAGTTGTTGTGGTTATCATGTCGGAGTCACCTAGTGCAG,8410 fluorescence intensity (a.u.)
12,CATTTCACACTCGCGTATATATTCTTCTTTCCTTTTGTCTCGGAGTCACCTAGTGCAG,12600 fluorescence intensity (a.u.)
13,TCCAGCGACGTTGTGGTGGGTATCTGAGGGCTGAGACATGCGGAGTCACCTAGTGCAG,8110 fluorescence intensity (a.u.)
14,ACCCCGCTTCCAGTTCTGACTCTGTTGCCTCTCTGCTTTCCGGAGTCACCTAGTGCAG,10200 fluorescence intensity (a.u.)
15,CAAACATAGCTTTTCTTTTTTCTTTCATTTCTCGTGGGAACGGAGTCACCTAGTGCAG,8100 fluorescence intensity (a.u.)
16,GAATGTTGATGCTGTTGATGCATGCACCTGCCGAAGGCCGCGGAGTCACCTAGTGCAG,9170 fluorescence intensity (a.u.)
17,CACCGTTAATTTTTTCTCACATGTTTGACCATTCATCTTACGGAGTCACCTAGTGCAG,14400 fluorescence intensity (a.u.)
18,TACCATATTCGCGCCGGTTCGTTTTCGCTCCGTTTTCGATCGGAGTCACCTAGTGCAG,9680 fluorescence intensity (a.u.)
19,GGGGATGGAGGTAGTATTTCTAAGATTTAAATTTTGTAGACGGAGTCACCTAGTGCAG,11100 fluorescence intensity (a.u.)
20,CATCTTCGACCTCGGCCCGCTCCTCCGCGACCTGCACGCGCGGAGTCACCTAGTGCAG,9570 fluorescence intensity (a.u.)
21,GAATTTCCGGAAATTTTCTCGGAATTACTAGAAATTTTGTCGGAGTCACCTAGTGCAG,9140 fluorescence intensity (a.u.)
22,CTCACCCTCGACCTGTCATCCTCCGCCACCTTCTTCGACTCGGAGTCACCTAGTGCAG,10000 fluorescence intensity (a.u.)
23,GAGGTGAGGGGAGGGTCGCCGGAGACGGAGGTCTAGGGTTCGGAGTCACCTAGTGCAG,8240 fluorescence intensity (a.u.)
24,AAACCATTTTTTTTATCTATTATCCTTTGACTGTTTAATTCGGAGTCACCTAGTGCAG,10500 fluorescence intensity (a.u.)
25,CTGGCGAGCAGAGCAGGGGAGGGGAAGGGAAGGTATCCTGCGGAGTCACCTAGTGCAG,8460 fluorescence intensity (a.u.)
26,TACCCTTTTTTTGGGTAGGGTGGGTTGGATTTATTTATTTCGGAGTCACCTAGTGCAG,12300 fluorescence intensity (a.u.)
27,GGGCTTTTTTTACCTAGTTGATTAGCATTCCGCCATGTTACGGAGTCACCTAGTGCAG,10700 fluorescence intensity (a.u.)

# A stretch of the results above, for reference:
row,Sequence,binding signal
27,CCACTTGCCCTTTGTCTTGTTCCTCCGCGCAGCTAGCTAGCGGAGTCACCTAGTGCAG,10300 fluorescence intensity (a.u.)
1,TCTCTTTTCTCATTTTTTCGCTTGCCACATCATTTTCTATCGGAGTCACCTAGTGCAG,9600 fluorescence intensity (a.u.)

# Some of the entries so far, tab-delimited:
row	Sequence	binding signal
25	CTGGCGAGCAGAGCAGGGGAGGGGAAGGGAAGGTATCCTGCGGAGTCACCTAGTGCAG	8460 fluorescence intensity (a.u.)
26	TACCCTTTTTTTGGGTAGGGTGGGTTGGATTTATTTATTTCGGAGTCACCTAGTGCAG	12300 fluorescence intensity (a.u.)
